Results published in PubChem BioAssay AID588590 (National Center for Advancing Translational Sciences (NCATS), 2011).
Values joined by “and” are separate entries in the source; they are usually repeats but may differ in a detail not shown here. Equal values may be shown once. In all, about 390,000 compounds went through this assay and about 4,000 (1%) were called active. This list was built around the results that the source calls inconclusive (neither active nor inactive); the mix of calls is not that of the screen. Calls come from the whole dose curve; as a rule, active = well fitted inhibition curve with a large enough effect; inconclusive = small, poorly fitted or top-dose-only effect, or another doubt; inactive = no such curve, though single readings can be large or run the other way. Potencies of inconclusive entries are doubtful fits and often do not repeat.

By UniProt entry, the sequences of proteins in these tests, tags left out. Where a name states a change or a piece, a line headed by the entry shows the natural chain unless it says otherwise.
UniProt Q9UNA4: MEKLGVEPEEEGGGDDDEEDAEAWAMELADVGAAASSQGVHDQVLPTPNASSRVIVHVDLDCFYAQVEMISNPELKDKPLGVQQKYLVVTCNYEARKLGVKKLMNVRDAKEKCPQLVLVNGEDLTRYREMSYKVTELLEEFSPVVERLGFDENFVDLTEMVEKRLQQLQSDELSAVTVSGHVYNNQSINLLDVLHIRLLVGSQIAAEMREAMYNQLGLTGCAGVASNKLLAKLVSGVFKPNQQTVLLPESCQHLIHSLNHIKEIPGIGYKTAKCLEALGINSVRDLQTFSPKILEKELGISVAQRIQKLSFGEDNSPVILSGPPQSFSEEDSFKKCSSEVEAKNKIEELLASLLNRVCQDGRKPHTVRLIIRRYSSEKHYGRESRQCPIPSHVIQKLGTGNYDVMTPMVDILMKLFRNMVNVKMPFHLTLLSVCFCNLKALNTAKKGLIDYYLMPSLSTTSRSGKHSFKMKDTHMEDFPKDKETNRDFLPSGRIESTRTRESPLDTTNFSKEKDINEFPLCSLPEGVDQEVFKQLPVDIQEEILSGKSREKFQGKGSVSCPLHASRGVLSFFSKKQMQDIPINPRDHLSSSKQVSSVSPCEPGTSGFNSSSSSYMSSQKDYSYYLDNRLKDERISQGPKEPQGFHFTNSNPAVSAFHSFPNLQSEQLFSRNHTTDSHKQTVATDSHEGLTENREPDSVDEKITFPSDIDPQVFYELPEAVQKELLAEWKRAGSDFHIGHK

Each molecule was assayed against DNA polymerase iota (Homo sapiens) (UniProt Q9UNA4) (assay: qHTS for Inhibitors of Polymerase Iota). Details: Pol iota fluorescent replication assay, 10 min; series mostly up to 115 µM; activity, negative = inhibition: at the top concentration.
Method in brief: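 Pol iota at 10 nM preincubated 15 min with compounds at room temperature; reaction started with fluorescent substrate, 50 nM final. Fluorescence read kinetically at 0 and 10 min; buffer-only wells as negative control.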
Potency is the fitted concentration of half-maximal effect.

Compound | Potency | activity, negative = inhibition
CC(=O)N=c1c(C#N)cc2c(=O)n3cccc(C)c3nc2n1Cc1ccco1 | active: 39.8 µM | –
COc1cc(CN2CCC(C(=O)NCC(C)(C)CN(C)C)CC2)ccc1OCc1ccccc1 | inconclusive: 28.2 µM [inhibitor, full curve, poor fit] | –
COc1cccc(NC(=O)CN(C)S(=O)(=O)c2cccs2)c1 | – | inactive: 6.55%
CCCCCCCCCCCC1=C(O)C(=O)C=C(O)C1=O | inconclusive: 100 µM [inhibitor, partial curve, poor fit] and inconclusive: 79.4 µM [inhibitor, partial curve] | –
CN(C)CC1CC/C(=C\c2ccc(O)cc2)C1=O (centres undefined) | inconclusive: 12.6 µM [inhibitor, full curve, poor fit] | –
O=C(CCNS(=O)(=O)c1ccc2c(c1)CCCC(=O)N2)NCc1ccccc1Cl | – | inactive: -8.31%
COc1ccc(C(=O)Nc2nnc(SCC(=O)NCc3ccco3)s2)c(OC)c1 | inconclusive: 89.1 µM [inhibitor, single point] | –
CCN1CCCC1CNC(=O)CSCc1nc(-c2ccccc2C)oc1C (centres undefined) | – | inactive: 2.55%
Cc1noc(C)c1S(=O)(=O)Nc1ccc2c(c1)C(=O)N([C@H](C)CO)C[C@H](C)[C@@H](CN(C)C(=O)NC1CCCCC1)O2 | inconclusive: 39.8 µM [inhibitor, single point] | –
Cc1cc(C)c2c(N)c(C(=O)NN3CC(=O)N(c4ccccc4)CC3=O)sc2n1 | inconclusive: 2.82 µM [inhibitor, full curve, poor fit] | –
O=C1c2cccc3cc([N+](=O)[O-])cc(c23)C(=O)N1CCN1CCCC1 | active: 20 µM | –
O=C(NN1C(=O)CSC1=S)c1cccnc1 | inconclusive: 12.6 µM [inhibitor, partial curve] | –
Oc1ccc(/C=N/Nc2ccnc3cc(Cl)ccc23)c(O)c1 | inconclusive: 70.8 µM [inhibitor, single point] | –
C#CCOCCOCCOCCNc1nc(N2CCN(C(=O)Cn3cc(CCO)nn3)CC2)nc(N2CCN(C(=O)[C@H]([C@@H](C)CC)n3cc(CCCCN)nn3)CC2)n1 | inconclusive: 10 µM [inhibitor, partial curve] | –
CC(C(=O)NCc1ccccc1)N1Cc2ccccc2C1=O (centres undefined) | – | inactive: 7.41%
COc1ccc(NC(=O)N2CCCc3cccc(C)c32)cc1 | inconclusive: 20 µM [inhibitor, partial curve, poor fit] | –
CCOc1ccccc1NC(=O)C(OC(=O)c1ccc(NC(=O)CC#N)cc1)c1ccccc1 (centres undefined) | inconclusive: 35.5 µM [inhibitor, partial curve, poor fit] | –
COc1ccc(-c2cn(Cc3ccc4c(c3)C(=O)c3ccccc3C4=O)nn2)cc1 | inactive | –
NC(=O)c1c(/N=C/c2cccnc2)sc2c1CCCC2 | inconclusive: 39.8 µM [inhibitor, partial curve, poor fit] | –
CNc1ccc(Br)cc(C(=O)/C=C/c2cccc(Cl)c2Cl)c1=O | active: 6.31 µM | –

Compound | Potency | activity, negative = inhibition
OC(Cc1ccc2ccccc2n1)c1ccc(Cl)c(Cl)c1 (centres undefined) | – | inactive: 13.3%
Cc1ccc(NC(=O)c2c([N+](=O)[O-])cnn2C)cc1C | inconclusive: 89.1 µM [inhibitor, single point] | –
O=C(CSc1nc2c(sc3ccccc32)c(=O)n1CCc1ccccc1)NCc1ccco1 | inconclusive: 35.5 µM [inhibitor, partial curve, poor fit] | –
CN(CC(=O)Nc1ccc(Cl)c(C(F)(F)F)c1)C(=O)c1ccc(N2CCOCC2)c([N+](=O)[O-])c1 | inconclusive: 50.1 µM [inhibitor, partial curve, poor fit] | –
O=C(/C=C/c1ccco1)NCc1ccco1 | inconclusive: 22.4 µM [inhibitor, full curve] | –
Cc1cccc(CS(=O)(=O)Cc2ccc(C(=O)NCc3ccc(F)cc3)o2)c1 | inconclusive: 100 µM [inhibitor, single point] | –
CCCCN1C(=N)N([C@@H](C)CN2CCC[C@H]2CN2C(N)=NC[C@H]2C(C)C)C[C@H]1[C@H](C)CC | inconclusive: 17.8 µM [inhibitor, partial curve, poor fit] | –
COc1ccc(OC)c(NC(=O)COC(=O)/C=C/c2ccco2)c1 | inconclusive: 56.2 µM [inhibitor, partial curve, poor fit] | –
COc1ccccc1CNC(=O)[C@H](C)N1C(=O)N2CCc3c([nH]c4ccccc34)[C@@]2(C)C1=O | inconclusive: 3.98 µM [inhibitor, full curve, poor fit] | –
CC(C)SCC(=O)Nc1ncc2c(n1)-c1ccccc1CC2 | inconclusive: 35.5 µM [inhibitor, partial curve, poor fit] | –
COc1cccc(NC(=O)c2cc3ccccc3o/c2=N\O)c1 | inconclusive: 44.7 µM [inhibitor, partial curve, poor fit] | –
CC(C)[C@H](NC(=O)c1ccc(Br)cc1)C(=O)NC1CCCCC1 | – | inactive: 25.1%
COC(=O)[C@]1(C)N[C@H](c2ccc(-c3ccc(Cl)c(Cl)c3)cc2)[C@@H]2C(=O)N(C)C(=O)[C@@H]21 | inconclusive: 28.2 µM [inhibitor, partial curve, poor fit] | –
CN(C)c1ccc(O)c2c1CC1CC3[C@@H](N(C)C)C(=O)C(C(N)=O)C(=O)[C@]3(O)C(=O)C1C2=O (some centres undefined) | inconclusive: 70.8 µM [inhibitor, partial curve] | –
Cc1cccnc1N(C(=O)Nc1ccccc1)C1=NCC(C)(C)S1 | inconclusive: 6.31 µM [inhibitor, partial curve, poor fit] | –
O=C(Cn1ccnc1)c1ccc(O)c(O)c1 | inconclusive: 50.1 µM [inhibitor, partial curve, poor fit] | –
Clc1ccc(C(c2nnnn2CCc2ccccc2)N2CCSCC2)cc1 (centres undefined) | inconclusive: 20 µM [inhibitor, single point] | –
O=C(Nc1nncs1)C1CC(=O)N(C2CCCC2)C1 (centres undefined) | inconclusive: 79.4 µM [inhibitor, partial curve, poor fit] | –
COc1ccccc1OCCCCCNCCO | inconclusive: 89.1 µM [inhibitor, single point] | –

Eight compounds from above, sorted by formula weight, smallest number first.
Compound | Potency | activity, negative = inhibition
O=C(Cn1ccnc1)c1ccc(O)c(O)c1 | inconclusive: 50.1 µM [inhibitor, partial curve, poor fit] | –
O=C(Nc1nncs1)C1CC(=O)N(C2CCCC2)C1 (centres undefined) | inconclusive: 79.4 µM [inhibitor, partial curve, poor fit] | –
CC(C)SCC(=O)Nc1ncc2c(n1)-c1ccccc1CC2 | inconclusive: 35.5 µM [inhibitor, partial curve, poor fit] | –
OC(Cc1ccc2ccccc2n1)c1ccc(Cl)c(Cl)c1 (centres undefined) | – | inactive: 13.3%
COc1ccc(OC)c(NC(=O)COC(=O)/C=C/c2ccco2)c1 | inconclusive: 56.2 µM [inhibitor, partial curve, poor fit] | –
CC(C)[C@H](NC(=O)c1ccc(Br)cc1)C(=O)NC1CCCCC1 | – | inactive: 25.1%
CN(C)c1ccc(O)c2c1CC1CC3[C@@H](N(C)C)C(=O)C(C(N)=O)C(=O)[C@]3(O)C(=O)C1C2=O (some centres undefined) | inconclusive: 70.8 µM [inhibitor, partial curve] | –
O=C(CSc1nc2c(sc3ccccc32)c(=O)n1CCc1ccccc1)NCc1ccco1 | inconclusive: 35.5 µM [inhibitor, partial curve, poor fit] | –
